PubChem BioAssay AID1159584 – Peter MacCallum Cancer Centre, 2016

Aim: 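Genes that CDH1-null MCF10A cells selectively depend on to survive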 (primary screen)
Cells: human MCF10A breast epithelial cells, parental and CDH1-null
Reagents: siRNA against human genes
Measurement: 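Cell viability by CellTiter-Glo ATP luminescence, each line scaled to the mean of mock wells across plates, then CDH1-null over parental ratio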
Scale: CDH1-null / parental viability ratio: higher = CDH1-null cells survive relatively better than parental
Shown is an unselected part of about 18,000 reagents tested. Further read-outs or replicates are left out here. Not stated in the record: the amount of reagent, the time to read-out.

target gene | CDH1-null / parental viability ratio
CA10 | 0.98
EOLA2 | 1.05
EDN2 | 1.46
CDH10 | 1.07
USHBP1 | 1.11
WAC | 0.73
MST1R | 0.82
CD177 | 1.15
CCDC148 | 1.17
SLC30A5 | 1.1
RNF26 | 0.81
CHAF1B | 1.03
FAM167A | 1.07
CHERP | 1.36
SLC25A10 | 1.02
AGBL3 | 0.72
NPTX2 | 1.05
DGKD | 0.79
CSF1R | 1.7
BCKDHB | 1.01
FADS6 | 0.76
UBA2 | 1.11
MCRIP2 | 0.75
SETD5 | 1.29
GPR151 | 0.78
UBAP2 | 0.89
CYP4F3 | 0.97
PTHLH | 1.56
OR51B4 | 1.2
MMACHC | 1.01
TESK2 | 1
PCDHA7 | 1.24
ZNF140 | 0.79
MRPL33 | 1.18
BABAM2 | 1.36
CEP57 | 0.88
SHARPIN | 1.1
PRPSAP1 | 0.93
TMEM145 | 0.95
MYT1 | 0.7
ZBED4 | 1.27
OR5A1 | 1.2
TMED7 | 1.24
CEP76 | 1.08
OR6Y1 | 1.46
NSMCE3 | 1.27
TRIM59 | 0.82
HESX1 | 1.12
DHODH | 0.94
CPQ | 1.03
GFRA2 | 0.89
RDH16 | 1.09
OR51Q1 | 1.15
LIX1L | 0.95
ABCC1 | 1.04
NASP | 1.11
C20orf96 | 1.11
DNAJC4 | 1.11
TAF1C | 1.26
SOX8 | 1.11
TYMS | 1.21
CDKN2AIP | 0.94
CD40LG | 0.96
IFI30 | 1.14
SEBOX | 1.18
RAD52 | 1.1
PDXDC1 | 0.94
OR2G6 | 1.03

No new results follow: 9 of the entries above.
target gene | CDH1-null / parental viability ratio
NPTX2 | 1.05
DGKD | 0.79
CSF1R | 1.7
BCKDHB | 1.01
FADS6 | 0.76
UBA2 | 1.11
MCRIP2 | 0.75
SETD5 | 1.29
GPR151 | 0.78
